US20110207197

The chains behind the UniProt entries cited, without tags or fusion partners. Where a name states a change or a piece, a line headed by the entry shows the natural chain unless it says otherwise.
UniProt Q9UPY3: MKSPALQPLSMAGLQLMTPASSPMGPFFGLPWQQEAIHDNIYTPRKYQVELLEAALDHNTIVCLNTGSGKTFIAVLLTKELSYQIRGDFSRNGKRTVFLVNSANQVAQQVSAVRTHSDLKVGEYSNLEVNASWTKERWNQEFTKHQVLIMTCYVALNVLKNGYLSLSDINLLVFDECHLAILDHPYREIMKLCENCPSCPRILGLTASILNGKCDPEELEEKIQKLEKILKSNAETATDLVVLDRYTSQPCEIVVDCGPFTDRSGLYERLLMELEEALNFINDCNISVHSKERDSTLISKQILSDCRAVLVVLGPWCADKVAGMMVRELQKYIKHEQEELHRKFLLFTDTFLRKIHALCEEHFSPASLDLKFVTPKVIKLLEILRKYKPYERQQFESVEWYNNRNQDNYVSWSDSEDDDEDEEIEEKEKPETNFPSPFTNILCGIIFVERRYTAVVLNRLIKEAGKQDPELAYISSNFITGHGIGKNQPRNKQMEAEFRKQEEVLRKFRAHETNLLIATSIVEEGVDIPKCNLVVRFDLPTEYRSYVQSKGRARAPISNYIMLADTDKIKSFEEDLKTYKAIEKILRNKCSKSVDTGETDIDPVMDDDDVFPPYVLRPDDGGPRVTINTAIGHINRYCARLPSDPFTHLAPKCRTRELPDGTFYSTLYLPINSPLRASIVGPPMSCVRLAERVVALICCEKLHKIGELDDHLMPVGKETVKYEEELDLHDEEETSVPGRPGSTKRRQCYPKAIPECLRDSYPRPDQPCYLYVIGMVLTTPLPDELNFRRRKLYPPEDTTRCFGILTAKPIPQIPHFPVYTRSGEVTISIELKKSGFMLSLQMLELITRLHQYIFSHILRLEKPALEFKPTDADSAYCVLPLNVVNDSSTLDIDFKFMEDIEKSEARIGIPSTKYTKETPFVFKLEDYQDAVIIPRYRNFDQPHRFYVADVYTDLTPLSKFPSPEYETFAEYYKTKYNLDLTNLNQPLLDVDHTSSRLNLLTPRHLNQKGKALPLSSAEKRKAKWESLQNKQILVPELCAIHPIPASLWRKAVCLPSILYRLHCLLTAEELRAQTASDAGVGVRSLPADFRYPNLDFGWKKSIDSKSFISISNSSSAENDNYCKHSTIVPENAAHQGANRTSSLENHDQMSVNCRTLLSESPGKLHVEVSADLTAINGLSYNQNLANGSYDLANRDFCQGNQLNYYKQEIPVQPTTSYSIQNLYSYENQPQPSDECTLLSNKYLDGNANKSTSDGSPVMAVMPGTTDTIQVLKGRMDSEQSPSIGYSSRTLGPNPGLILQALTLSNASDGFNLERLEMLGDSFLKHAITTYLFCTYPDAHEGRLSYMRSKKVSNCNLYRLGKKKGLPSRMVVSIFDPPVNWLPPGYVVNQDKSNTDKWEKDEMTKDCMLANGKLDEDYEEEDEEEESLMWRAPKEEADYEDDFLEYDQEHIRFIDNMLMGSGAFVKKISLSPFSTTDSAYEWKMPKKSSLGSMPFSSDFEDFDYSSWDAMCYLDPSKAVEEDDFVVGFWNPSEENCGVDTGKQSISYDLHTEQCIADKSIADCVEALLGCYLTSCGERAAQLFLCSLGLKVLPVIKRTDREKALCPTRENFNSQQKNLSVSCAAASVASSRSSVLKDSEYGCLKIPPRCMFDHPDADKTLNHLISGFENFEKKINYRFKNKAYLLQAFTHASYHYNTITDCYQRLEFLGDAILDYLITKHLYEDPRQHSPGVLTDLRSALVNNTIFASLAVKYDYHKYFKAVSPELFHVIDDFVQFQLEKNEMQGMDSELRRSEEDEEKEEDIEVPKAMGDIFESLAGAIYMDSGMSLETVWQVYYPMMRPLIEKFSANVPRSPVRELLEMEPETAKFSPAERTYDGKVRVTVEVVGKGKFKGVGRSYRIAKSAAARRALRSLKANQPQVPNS

Target: Dicer (ribonuclease Dicer) (Homo sapiens) (UniProt Q9UPY3)
Assay: enzyme reaction in vitro
Conditions: pre-miRNA substrate cut by Dicer; 5 mM MgCl2, 37 C; purified recombinant protein; label: 5'-32P

Sequence	functional effect
GCCCCUGCCCACCGCACACUGCGCUGCCCCAGACCCACUGUGCGUGUGACAGCGGCUG [pre-hsa-miR-210]	active
GUGCAUUGUAGUUGCAUUGCAUGUUCUGGUGGUACCCAUGCAAUGUUUCCACAGUGCAUCA [pre-hsa-miR-33a]	active
